For 1 molecule, binding results are on record in article PMC11733299.

Results are given in words; binding and its absence hold for the method and conditions named. Some results given as binding are weak or reduced against the parent protein; the word gives no strength.

In assay [1] the target is T1, CNGC6-M (aa117-428) in pMetYCgate (Cub) (Arabidopsis thaliana) (UniProt O82226).
T1 sequence: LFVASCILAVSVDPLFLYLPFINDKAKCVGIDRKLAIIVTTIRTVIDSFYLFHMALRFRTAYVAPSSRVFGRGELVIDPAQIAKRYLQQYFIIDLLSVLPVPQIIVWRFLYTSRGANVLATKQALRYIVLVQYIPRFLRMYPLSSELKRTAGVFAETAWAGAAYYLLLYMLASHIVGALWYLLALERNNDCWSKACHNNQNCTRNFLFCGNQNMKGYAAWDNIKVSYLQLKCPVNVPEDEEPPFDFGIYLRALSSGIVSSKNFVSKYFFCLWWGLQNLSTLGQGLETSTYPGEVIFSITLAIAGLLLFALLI
The experiment in a line: two-hybrid; mating-based split-ubiquitin system (mbSUS); CNGC (full length or TM domains) in pMetYCgate (Cub), CPK1 in pNXgate32-3HA (Nub); yeast THY.AP4; growth on SD/-Leu-Trp-His-Ade.

Assay [2] deals with T2, full-length CNGC6 in pMetYCgate (Cub) (Arabidopsis thaliana) (UniProt O82226).
T2 sequence: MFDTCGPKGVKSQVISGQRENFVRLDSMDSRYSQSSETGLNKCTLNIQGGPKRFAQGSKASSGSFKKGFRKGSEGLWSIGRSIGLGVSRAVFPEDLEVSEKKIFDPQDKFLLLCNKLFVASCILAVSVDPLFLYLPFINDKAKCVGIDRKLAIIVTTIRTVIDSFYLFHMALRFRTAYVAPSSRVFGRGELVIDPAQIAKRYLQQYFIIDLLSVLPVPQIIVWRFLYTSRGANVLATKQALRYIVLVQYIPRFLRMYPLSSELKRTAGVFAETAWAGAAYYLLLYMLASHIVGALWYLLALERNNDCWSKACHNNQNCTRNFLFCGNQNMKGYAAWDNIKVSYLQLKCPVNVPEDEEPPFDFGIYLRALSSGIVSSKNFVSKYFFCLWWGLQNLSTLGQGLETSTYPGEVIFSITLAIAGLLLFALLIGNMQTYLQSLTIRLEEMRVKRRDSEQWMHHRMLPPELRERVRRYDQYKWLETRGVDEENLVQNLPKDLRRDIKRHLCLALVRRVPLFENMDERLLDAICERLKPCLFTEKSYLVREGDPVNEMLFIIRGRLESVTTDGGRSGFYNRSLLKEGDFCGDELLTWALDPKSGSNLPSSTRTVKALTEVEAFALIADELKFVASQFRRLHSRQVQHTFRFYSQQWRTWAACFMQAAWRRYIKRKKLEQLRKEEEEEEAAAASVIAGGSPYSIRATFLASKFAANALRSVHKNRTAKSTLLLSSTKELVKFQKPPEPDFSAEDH
The assay is described as above.

B1: Nub-CPK1 (calcium dependent protein kinase 1 in pNXgate32-3HA) (enzyme, UniProt Q06850 1-610)
chain: MGNTCVGPSRNGFLQSVSAAMWRPRDGDDSASMSNGDIASEAVSGELRSRLSDEVQNKPPEQVTMPKPGTDVETKDREIRTESKPETLEEISLESKPETKQETKSETKPESKPDPPAKPKKPKHMKRVSSAGLRTESVLQRKTENFKEFYSLGRKLGQGQFGTTFLCVEKTTGKEFACKSIAKRKLLTDEDVEDVRREIQIMHHLAGHPNVISIKGAYEDVVAVHLVMECCAGGELFDRIIQRGHYTERKAAELTRTIVGVVEACHSLGVMHRDLKPENFLFVSKHEDSLLKTIDFGLSMFFKPDDVFTDVVGSPYYVAPEVLRKRYGPEADVWSAGVIVYILLSGVPPFWAETEQGIFEQVLHGDLDFSSDPWPSISESAKDLVRKMLVRDPKKRLTAHQVLCHPWVQVDGVAPDKPLDSAVLSRMKQFSAMNKFKKMALRVIAESLSEEEIAGLKEMFNMIDADKSGQITFEELKAGLKRVGANLKESEILDLMQAADVDNSGTIDYKEFIAATLHLNKIEREDHLFAAFTYFDKDGSGYITPDELQQACEEFGVEDVRIEELMRDVDQDNDGRIDYNEFVAMMQKGSITGGPVKMGLEKSFSIALKL
As to B1, the binding result is reported as “no binding” in assay [1] and “binds” in assay [2].
